{"sequences": {"note": "By UniProt entry, the sequences of proteins in these tests, tags left out. Where a name states a change or a piece, a line headed by the entry shows the natural chain unless it says otherwise.", "UniProt P18901": "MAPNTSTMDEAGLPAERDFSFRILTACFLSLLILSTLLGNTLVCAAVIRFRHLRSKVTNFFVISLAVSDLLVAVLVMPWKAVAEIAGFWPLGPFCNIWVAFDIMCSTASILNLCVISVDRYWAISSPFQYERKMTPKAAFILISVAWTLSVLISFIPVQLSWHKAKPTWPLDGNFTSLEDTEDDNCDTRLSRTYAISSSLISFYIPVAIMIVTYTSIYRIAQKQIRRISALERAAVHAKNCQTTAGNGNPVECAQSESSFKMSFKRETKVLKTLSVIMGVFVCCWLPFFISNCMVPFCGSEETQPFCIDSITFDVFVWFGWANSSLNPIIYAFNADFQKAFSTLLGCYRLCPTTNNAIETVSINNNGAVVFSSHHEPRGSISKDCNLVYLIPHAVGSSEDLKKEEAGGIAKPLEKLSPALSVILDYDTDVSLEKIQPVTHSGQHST", "UniProt P14416": "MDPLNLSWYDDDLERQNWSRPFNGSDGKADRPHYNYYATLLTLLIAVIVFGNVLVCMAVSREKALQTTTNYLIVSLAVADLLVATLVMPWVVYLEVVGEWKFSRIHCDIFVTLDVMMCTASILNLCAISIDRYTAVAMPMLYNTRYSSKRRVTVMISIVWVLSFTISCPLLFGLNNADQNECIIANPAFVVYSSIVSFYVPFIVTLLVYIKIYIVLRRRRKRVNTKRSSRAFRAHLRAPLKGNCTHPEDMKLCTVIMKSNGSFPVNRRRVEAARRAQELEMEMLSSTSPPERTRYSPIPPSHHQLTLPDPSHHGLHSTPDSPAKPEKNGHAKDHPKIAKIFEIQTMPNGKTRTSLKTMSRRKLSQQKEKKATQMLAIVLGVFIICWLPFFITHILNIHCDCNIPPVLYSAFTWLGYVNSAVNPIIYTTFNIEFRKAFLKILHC", "UniProt P21728": "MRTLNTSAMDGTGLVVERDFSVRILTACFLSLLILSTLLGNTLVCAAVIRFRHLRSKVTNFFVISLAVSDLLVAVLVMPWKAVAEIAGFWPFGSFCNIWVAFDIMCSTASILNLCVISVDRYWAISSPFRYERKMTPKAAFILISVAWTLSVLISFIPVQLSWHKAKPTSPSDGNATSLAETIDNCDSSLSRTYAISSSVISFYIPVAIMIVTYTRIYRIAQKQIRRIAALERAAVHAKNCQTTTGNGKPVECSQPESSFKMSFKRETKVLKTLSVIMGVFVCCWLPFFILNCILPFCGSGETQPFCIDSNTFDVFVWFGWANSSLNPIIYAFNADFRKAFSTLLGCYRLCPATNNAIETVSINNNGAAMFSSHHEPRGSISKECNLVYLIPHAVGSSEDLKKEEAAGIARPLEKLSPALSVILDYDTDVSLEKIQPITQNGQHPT"}, "source": "patent US20120134991A1", "key": {"[1]": {"target": "D1 receptor from solubilized rat striatum / prefrontal cortex (rat) (UniProt P18901)", "test": "GST pull-down from rat striatal extract, Western blot (FIG. 1C)"}, "[2]": {"target": "D1 receptor from solubilized rat striatum / prefrontal cortex (rat) (UniProt P18901)", "test": "GST pull-down from rat striatal extract, Western blot (FIG. 1D)"}, "[3]": {"target": "T1, GST-D2LIL3-29-2 (I256-V270) (human)", "T1 sequence": "IMKSNGSFPVNRRRV", "test": "in vitro binding assay with S35-labelled probe (FIG. 1F)"}, "[4]": {"target": "D2 receptor from human post-mortem striatum (human) (UniProt P14416)", "test": "co-immunoprecipitation with D2 receptor antibody from human post-mortem striatum, immunoblot with D1 antibody"}, "[5]": {"target": "D2 receptor from human post-mortem striatum (human) (UniProt P14416)", "test": "co-immunoprecipitation with anti-D2 receptor antibody from human post-mortem striatum, densitometry of Western blots"}, "[6]": {"target": "D2 receptor from human post-mortem striatum (human) (UniProt P14416)", "test": "co-immunoprecipitation with anti-D2 receptor antibodies from human post-mortem striatum, immunoblot with D1 antibody (FIG. 4)"}}, "note": "Results are given in words; binding and its absence hold for the method and conditions named. For part of these data: Binding seen in cells or lysates may run through a third protein. Some results given as binding are weak or reduced against the parent protein; the word gives no strength. For part of these data: Where a sequence is shown, tags or fusion partners need not be part of it."}
{"substance": "GST-D2IL3-L (K211-Q373) (from UniProt P14416 211-373)", "values": [{"measurement": "binding", "setting": "[1]", "value": "binds"}, {"measurement": "binding", "setting": "[2]", "value": "binds"}]}
{"substance": "S35-D1 tail probe (from UniProt P21728 332-446)", "values": [{"measurement": "binding", "setting": "[3]", "value": "binds"}]}
{"substance": "human D1R (from UniProt P21728 1-446) (receptor)", "values": [{"measurement": "binding", "setting": "[4]", "value": "binds"}, {"measurement": "binding", "setting": "[5]", "value": "binds"}, {"measurement": "binding", "setting": "[6]", "value": "binds"}]}
